The values that follow come from article PMC4349446.

Chains of the proteins cited; added tags and fusions are not shown. Lines headed by an entry give the natural chain unless they say otherwise; changes in a name come on top.
UniProt P16671: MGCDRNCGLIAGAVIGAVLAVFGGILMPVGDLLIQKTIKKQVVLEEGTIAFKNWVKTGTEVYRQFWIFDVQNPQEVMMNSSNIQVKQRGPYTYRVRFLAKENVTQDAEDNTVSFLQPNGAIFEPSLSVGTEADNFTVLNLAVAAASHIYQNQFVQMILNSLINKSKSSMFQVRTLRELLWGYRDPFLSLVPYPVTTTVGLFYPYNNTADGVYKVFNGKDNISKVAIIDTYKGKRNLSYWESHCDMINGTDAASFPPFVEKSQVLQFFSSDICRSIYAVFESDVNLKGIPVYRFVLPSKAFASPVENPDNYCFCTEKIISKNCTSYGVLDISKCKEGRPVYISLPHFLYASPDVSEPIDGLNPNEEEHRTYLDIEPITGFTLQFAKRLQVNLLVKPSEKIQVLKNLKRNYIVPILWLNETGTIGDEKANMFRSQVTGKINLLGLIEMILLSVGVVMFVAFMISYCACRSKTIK

These are yes or no findings as the source states them, for the method shown. Binding can be weak; no strength is given.

The experiment has as its target Recombinant CD36 (hexa-histidine tag at C-terminal) (UniProt P16671). As to the kind of experiment: SPR; CD36 immobilised on a GLM sensor chip (ProteON XPR36); peptide 10 μM in PBS-Tween20, 50 μl/min, association 0–120 sec; both purified.

Consider DCKWKEQMTTNIMWAASPFASYAKLQLKYFKGQLGLRGLGSEDK [scrambled 44 mer peptide], for which the binding entry was “binds”.
